The RepoRT retention time repository

Experiment: RP, Restek Raptor Biphenyl, 100 × 2.1 mm, 2.7 µm, 50 °C, 0.4 mL/min, estimated dead time 0.55 min; A: water + 0.1% formic acid, pH 3; B: methanol + 0.1% formic acid, pH 3; gradient (min/%B) 0/5 1.12/5 6.41/99.5 10.01/99.5
Settings: stereoisomer not certain

| Compound | LC retention time |
| --- | --- |
| O=C(O)C(=O)Cc1ccc(O)cc1 [3-(4-HYDROXYPHENYL)PYRUVATE] | 3.31 min |
| O=C(O)C1=CC(=O)C(O)C(O)C1 (configuration not stated) [3-DEHYDROSHIKIMATE] | 0.746 min |
